{"source": "the supplement of paper PMC8728848", "binders": {"B1": {"name": "SspB A3vp1 (Streptococcus gordonii), Q54186 (protein)", "chain": "MTNEADYQAKLAAYQTELARVQKANADAKATYEKAVEDNKAKNAAIKAENEEIKQRNAVAKTDYEAKLAKYEADLAKYKKEFAAYTAALAEAESKKKQDGYLSEPRSQSLNFKSEPNAIRTIDSSVHQYGQQELDALVKSWGISPTNPDRKKSRAYSYFNAINSNNTYAKLVLEKDKPVDVTYTGLKNSSFNGKKISKVVYTYTLKETGFNDGTKMTMFASSDPTVTAWYNDYFTSTNINVKVKFYDEEGQLMNLTGGLVNFSSLNRGNGSGAIDKDAIESVRNFNGRYIPISGSSIKIHENNSAYADSSNAEKSLGARWNTSEWDTTSSPNNWYGAIVGEITQSEISFNMASSKSGNIWFAFNSNINAIGVPTKPVAPTAPTQPMYETEKPLEPAPVAPSYENEPTPPVKTPDQPEPSKPAAALEHHHHHH"}}, "assay_in_all_cases": "glycan array binding signal (z-score within array); higher = stronger binding", "settings_in_all_cases": "glycan notation: IUPAC condensed, linker removed", "key": {"[1]": {"target": "Neu5Ac(a2-3)Gal(b1-3)GlcNAc(b1-2)Man(a1-3)[GlcNAc(b1-4)][Neu5Ac(a2-3)Gal(b1-3)GlcNAc(b1-2)Man(a1-6)]Man(b1-4)GlcNAc(b1-4)GlcNAc", "outline": "(§1)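 From the Consortium for Functional Glycomics database, 3228 arrays were curated, keeping only those whose protein sequence was available. Binding is given as a within-array Z-score averaged across arrays sharing a protein sequence and across linkers. Negative Z-scores can be read as non-binding.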"}, "[2]": {"target": "Neu5Ac(a2-3)Gal(b1-3)GlcNAc(b1-2)Man(a1-3)[Neu5Ac(a2-3)Gal(b1-3)GlcNAc(b1-2)Man(a1-6)]Man(b1-4)GlcNAc(b1-4)GlcNAc", "outline": "as §1"}, "[3]": {"target": "Neu5Ac(a2-3)Gal(b1-3)GlcNAc(b1-3)Gal(b1-3)GlcNAc", "outline": "as §1"}, "[4]": {"target": "Neu5Ac(a2-3)Gal(b1-3)GlcNAc(b1-3)Gal(b1-4)GlcNAc", "outline": "as §1"}, "[5]": {"target": "Neu5Ac(a2-3)Gal(b1-3)GlcNAc(b1-3)GalNAc", "outline": "as §1"}, "[6]": {"target": "Neu5Ac(a2-3)Gal(b1-3)GlcNAc(b1-4)Gal(b1-4)Glc", "outline": "as §1"}, "[7]": {"target": "Neu5Ac(a2-3)Gal(b1-3)GlcNAc(b1-6)GalNAc", "outline": "as §1"}, "[8]": {"target": "Neu5Ac(a2-3)Gal(b1-3)GlcNAc6S", "outline": "as §1"}, "[9]": {"target": "Neu5Ac(a2-3)Gal(b1-3)[Fuc(a1-4)]GlcNAc", "outline": "as §1"}, "[10]": {"target": "Neu5Ac(a2-3)Gal(b1-3)[Fuc(a1-4)]GlcNAc(b1-3)Gal(b1-3)[Fuc(a1-4)]GlcNAc", "outline": "as §1"}, "[11]": {"target": "Neu5Ac(a2-3)Gal(b1-3)[Fuc(a1-4)]GlcNAc(b1-3)Gal(b1-4)[Fuc(a1-3)]GlcNAc", "outline": "as §1"}, "[12]": {"target": "Neu5Ac(a2-3)Gal(b1-3)[GlcNAc(b1-6)]GalNAc", "outline": "as §1"}, "[13]": {"target": "Neu5Ac(a2-3)Gal(b1-3)[Neu5Ac(a2-6)]GalNAc", "outline": "as §1"}, "[14]": {"target": "Neu5Ac(a2-3)Gal(b1-3)[Neu5Ac(a2-6)]GlcNAc(b1-3)[Fuc(a1-3)[Gal(b1-4)]GlcNAc(b1-6)]Gal(b1-4)Glc", "outline": "as §1"}, "[15]": {"target": "Neu5Ac(a2-3)Gal(b1-3)]Neu5Ac(a2-3)Gal(b1-4)]GlcNAc", "outline": "as §1"}, "Neu5Ac(a2-3)Gal(b1-4)Glc": {"target": "Neu5Ac(a2-3)Gal(b1-4)Glc", "outline": "as §1"}, "[16]": {"target": "Neu5Ac(a2-3)Gal(b1-4)GlcNAc", "outline": "as §1"}, "[17]": {"target": "Neu5Ac(a2-3)Gal(b1-4)GlcNAc(b1-2)Man", "outline": "as §1"}, "[18]": {"target": "Neu5Ac(a2-3)Gal(b1-4)GlcNAc(b1-2)Man(a1-3)[GlcNAc(b1-4)][Neu5Ac(a2-3)Gal(b1-4)GlcNAc(b1-2)Man(a1-6)]Man(b1-4)GlcNAc(b1-4)GlcNAc", "outline": "as §1"}, "[19]": {"target": "Neu5Ac(a2-3)Gal(b1-4)GlcNAc(b1-2)Man(a1-3)[Neu5Ac(a2-3)Gal(b1-4)GlcNAc(b1-2)Man(a1-6)]Man(b1-4)GlcNAc(b1-4)GlcNAc", "outline": "as §1"}, "[20]": {"target": "Neu5Ac(a2-3)Gal(b1-4)GlcNAc(b1-2)Man(a1-3)[Neu5Ac(a2-3)Gal(b1-4)GlcNAc(b1-2)Man(a1-6)]Man(b1-4)GlcNAc(b1-4)[Fuc(a1-6)]GlcNAc", "outline": "as §1"}, "[21]": {"target": "Neu5Ac(a2-3)Gal(b1-4)GlcNAc(b1-2)Man(a1-3)[Neu5Ac(a2-6)Gal(b1-4)GlcNAc(b1-2)Man(a1-6)]Man(b1-4)GlcNAc(b1-4)GlcNAc", "outline": "as §1"}, "[22]": {"target": "Neu5Ac(a2-3)Gal(b1-4)GlcNAc(b1-2)[Neu5Ac(a2-3)Gal(b1-4)GlcNAc(b1-4)]Man(a1-3)[GlcNAc(b1-4)][Neu5Ac(a2-3)Gal(b1-4)GlcNAc(b1-2)[Neu5Ac(a2-3)Gal(b1-4)GlcNAc(b1-6)]Man(a1-6)]Man(b1-4)GlcNAc(b1-4)GlcNAc", "outline": "as §1"}, "[23]": {"target": "Neu5Ac(a2-3)Gal(b1-4)GlcNAc(b1-2)[Neu5Ac(a2-3)Gal(b1-4)GlcNAc(b1-4)]Man(a1-3)[GlcNAc(b1-4)][Neu5Ac(a2-3)Gal(b1-4)GlcNAc(b1-4)Man(a1-6)]Man(b1-4)GlcNAc(b1-4)GlcNAc", "outline": "as §1"}, "[24]": {"target": "Neu5Ac(a2-3)Gal(b1-4)GlcNAc(b1-2)[Neu5Ac(a2-3)Gal(b1-4)GlcNAc(b1-6)]Man(a1-6)[Neu5Ac(a2-3)Gal(b1-4)GlcNAc(b1-2)Man(a1-3)]Man(b1-4)GlcNAc(b1-4)GlcNAc", "outline": "as §1"}, "[25]": {"target": "Neu5Ac(a2-3)Gal(b1-4)GlcNAc(b1-2)[Neu5Ac(a2-3)Gal(b1-4)GlcNAc(b1-6)]Man(a1-6)[Neu5Ac(a2-3)Gal(b1-4)GlcNAc(b1-2)Man(a1-3)][GlcNAc(b1-4)]Man(b1-4)GlcNAc(b1-4)GlcNAc", "outline": "as §1"}, "[26]": {"target": "Neu5Ac(a2-3)Gal(b1-4)GlcNAc(b1-3)Gal", "outline": "as §1"}, "[27]": {"target": "Neu5Ac(a2-3)Gal(b1-4)GlcNAc(b1-3)Gal(b1-3)GlcNAc", "outline": "as §1"}, "[28]": {"target": "Neu5Ac(a2-3)Gal(b1-4)GlcNAc(b1-3)Gal(b1-4)GlcNAc", "outline": "as §1"}, "[29]": {"target": "Neu5Ac(a2-3)Gal(b1-4)GlcNAc(b1-3)Gal(b1-4)GlcNAc(b1-2)Man(a1-3)[Neu5Ac(a2-3)Gal(b1-4)GlcNAc(b1-3)Gal(b1-4)GlcNAc(b1-2)Man(a1-6)]Man(b1-4)GlcNAc(b1-4)GlcNAc", "outline": "as §1"}, "[30]": {"target": "Neu5Ac(a2-3)Gal(b1-4)GlcNAc(b1-3)Gal(b1-4)GlcNAc(b1-3)Gal(b1-4)GlcNAc", "outline": "as §1"}, "[31]": {"target": "Neu5Ac(a2-3)Gal(b1-4)GlcNAc(b1-3)Gal(b1-4)GlcNAc(b1-3)Gal(b1-4)GlcNAc(b1-2)Man(a1-3)[Neu5Ac(a2-3)Gal(b1-4)GlcNAc(b1-3)Gal(b1-4)GlcNAc(b1-3)Gal(b1-4)GlcNAc(b1-2)Man(a1-6)]GalNAc", "outline": "as §1"}, "[32]": {"target": "Neu5Ac(a2-3)Gal(b1-4)GlcNAc(b1-3)Gal(b1-4)GlcNAc(b1-3)GalNAc", "outline": "as §1"}, "[33]": {"target": "Neu5Ac(a2-3)Gal(b1-4)GlcNAc(b1-3)Gal(b1-4)GlcNAc(b1-3)[Neu5Ac(a2-3)Gal(b1-4)GlcNAc(b1-3)Gal(b1-4)GlcNAc(b1-6)]GalNAc", "outline": "as §1"}, "[34]": {"target": "Neu5Ac(a2-3)Gal(b1-4)GlcNAc(b1-3)Gal(b1-4)GlcNAc(b1-6)[Gal(b1-3)]GalNAc", "outline": "as §1"}, "[35]": {"target": "Neu5Ac(a2-3)Gal(b1-4)GlcNAc(b1-3)Gal(b1-4)[Fuc(a1-3)]GlcNAc", "outline": "as §1"}, "[36]": {"target": "Neu5Ac(a2-3)Gal(b1-4)GlcNAc(b1-3)GalNAc", "outline": "as §1"}, "[37]": {"target": "Neu5Ac(a2-3)Gal(b1-4)GlcNAc(b1-3)[Neu5Ac(a2-3)Gal(b1-4)GlcNAc(b1-6)]GalNAc", "outline": "as §1"}}, "note": "This is one part of the list."}
{"binder": "B1", "values": [{"measurement": "glycan array binding signal (z-score)", "setting": "[1]", "value": 0.06}, {"measurement": "glycan array binding signal (z-score)", "setting": "[2]", "value": 0.14}, {"measurement": "glycan array binding signal (z-score)", "setting": "[3]", "value": 0.005}, {"measurement": "glycan array binding signal (z-score)", "setting": "[4]", "value": -0.489}, {"measurement": "glycan array binding signal (z-score)", "setting": "[5]", "value": -0.616}, {"measurement": "glycan array binding signal (z-score)", "setting": "[6]", "value": -0.254}, {"measurement": "glycan array binding signal (z-score)", "setting": "[7]", "value": 0.486}, {"measurement": "glycan array binding signal (z-score)", "setting": "[8]", "value": -1.23}, {"measurement": "glycan array binding signal (z-score)", "setting": "[9]", "value": -0.547}, {"measurement": "glycan array binding signal (z-score)", "setting": "[10]", "value": -0.099}, {"measurement": "glycan array binding signal (z-score)", "setting": "[11]", "value": 0.472}, {"measurement": "glycan array binding signal (z-score)", "setting": "[12]", "value": -1.02}, {"measurement": "glycan array binding signal (z-score)", "setting": "[13]", "value": 0.286}, {"measurement": "glycan array binding signal (z-score)", "setting": "[14]", "value": -0.752}, {"measurement": "glycan array binding signal (z-score)", "setting": "[15]", "value": -1.3}, {"measurement": "glycan array binding signal (z-score)", "setting": "Neu5Ac(a2-3)Gal(b1-4)Glc", "value": -0.328}, {"measurement": "glycan array binding signal (z-score)", "setting": "[16]", "value": -0.071}, {"measurement": "glycan array binding signal (z-score)", "setting": "[17]", "value": 1.88}, {"measurement": "glycan array binding signal (z-score)", "setting": "[18]", "value": -0.541}, {"measurement": "glycan array binding signal (z-score)", "setting": "[19]", "value": -0.413}, {"measurement": "glycan array binding signal (z-score)", "setting": "[20]", "value": -0.415}, {"measurement": "glycan array binding signal (z-score)", "setting": "[21]", "value": -0.006}, {"measurement": "glycan array binding signal (z-score)", "setting": "[22]", "value": -0.151}, {"measurement": "glycan array binding signal (z-score)", "setting": "[23]", "value": -0.366}, {"measurement": "glycan array binding signal (z-score)", "setting": "[24]", "value": 1.07}, {"measurement": "glycan array binding signal (z-score)", "setting": "[25]", "value": -0.681}, {"measurement": "glycan array binding signal (z-score)", "setting": "[26]", "value": -0.803}, {"measurement": "glycan array binding signal (z-score)", "setting": "[27]", "value": -0.773}, {"measurement": "glycan array binding signal (z-score)", "setting": "[28]", "value": -0.976}, {"measurement": "glycan array binding signal (z-score)", "setting": "[29]", "value": 3.69}, {"measurement": "glycan array binding signal (z-score)", "setting": "[30]", "value": -0.832}, {"measurement": "glycan array binding signal (z-score)", "setting": "[31]", "value": 0.678}, {"measurement": "glycan array binding signal (z-score)", "setting": "[32]", "value": -1.13}, {"measurement": "glycan array binding signal (z-score)", "setting": "[33]", "value": 0.05}, {"measurement": "glycan array binding signal (z-score)", "setting": "[34]", "value": 0.781}, {"measurement": "glycan array binding signal (z-score)", "setting": "[35]", "value": -0.251}, {"measurement": "glycan array binding signal (z-score)", "setting": "[36]", "value": -0.47}, {"measurement": "glycan array binding signal (z-score)", "setting": "[37]", "value": -0.774}]}
